The text below walks through data of US10119097B2, “Organic compounds” (GIVAUDAN SA, priority 2014, dated 2018).

The data set can be described thus: odour description.

Structures are written as SMILES.

With `COc1ccc(C=CCCc2ccc(CC(C)C)cc2C)cc1` [Example 2, 4-Isobutyl-1-(4-(4-methoxyphenyl)but-3-en-1-yl)-2-methylbenzene], the Odour description entry is reported as “floral muguet, green fatty cyclamen, floral fruity mimosa”. The same measure for `CCOC(=O)C(=CCCc1ccc(CC(C)C)cc1C)C(C)=O` [Example 1, Ethyl 2-acetyl-5-(4-isobutyl-2-methylphenyl)pent-2-enoate]: “floral green fatty muguet cyclamen, fatty buttery, green aldehydic, privet”.
